In PubChem BioAssay AID504834 (National Center for Advancing Translational Sciences (NCATS), 2011):
The whole screen tested about 320,000 compounds, of which about 22,000 (6.9%) were called active. Inconclusive means that the source gave no clear call. Such entries were picked first, then a sample of the others. Calls follow the shape of the dose curve; as a rule, active = well fitted inhibition curve with a large enough effect; inconclusive = small, poorly fitted or top-dose-only effect, or another doubt; inactive = no such curve, though single readings can be large or run the other way. Potencies beside an inconclusive call are fits to weak or partial responses and may not hold up.

Test: Primary qHTS for delayed death inhibitors of the malarial parasite plastid, 96 hour incubation
Conditions: P. falciparum luciferase reporter growth; series mostly up to 28.7 µM; activity change, negative = inhibition: at the top concentration
Summary of the method: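 Erythrocytes infected with luciferase-expressing P. falciparum were dispensed at 2% hematocrit and 0.05% parasitemia (final), then incubated with compounds 96 hours at 37 C in 5% CO2. Luminescence after detection reagent addition reported growth.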
% is scaled to controls: 0 for no effect and ±100 for the full control effect; potency is read from the fitted curve at half-maximal effect.

| Compound | activity change, negative = inhibition | Potency |
| --- | --- | --- |
| Clc1cccc(CN2CCSCC2)c1 | inactive: 24% | – |
| Cc1cc(C)c(NC(=O)c2cn3c4c(c(N5CCN(C)CC5)c(F)cc4c2=O)OCC3C)c(C)c1 (configuration not stated) | – | inconclusive: 4.15 µM [inhibitor, single point] |
| Cc1cc(NC(=O)CSCC(=O)N(c2ccc(F)cc2)C(C(=O)NC2CCCCC2)c2ccc(O)c(O)c2)no1 (configuration not stated) | – | active: 14.7 µM |
| C=CCNC(=O)CN1CCC(NC(=O)c2ccco2)CC1 | – | inconclusive: 13.1 µM [inhibitor, single point] |
| O=S(=O)(c1cccc2nonc12)N1CCCCCC1 | – | inconclusive: 4.15 µM [inhibitor, single point] |
| O=C(Nc1cccc(C(F)(F)F)c1)N1CCC(c2nc(-c3ccc(F)cc3)no2)CC1 | inactive: 291% | – |
| Cc1cccc(N(Cc2ccccc2)C(=O)c2ccccc2S(C)(=O)=O)c1 | – | inconclusive: 2.94 µM [inhibitor, partial curve, poor fit] |
| COc1cccc(N2C(=O)Nc3ccc(Br)cc3C2(O)C(=O)NCCCOC(C)C)c1 (configuration not stated) | – | inconclusive: 10.4 µM [inhibitor, partial curve, poor fit] |
| Cc1cc2c3c([nH]c2cc1S(=O)(=O)NCc1ccc(CN2CCCCCC2)o1)CC(C)(C)CC3=O | – | inconclusive: 11.7 µM [inhibitor, single point] |
| COc1cc2c(cc1OC)C1O[C@](CCCCN3C(=O)c4ccccc4C3=O)(C2)OC2=C1C(=O)OC1(CCCCC1)C2 | – | inconclusive: 2.13 µM [inhibitor, single point] |
| CCCCCNc1nc(N2CCCC2)c2c(c1C#N)CCN(C)C2 | inactive: 0.43% | – |
| CCOc1ccccc1C(=O)Nc1nncs1 | inactive: 18.8% | – |
| COc1ccc(N=CC2=C(O)CCCC2=O)cc1 | inactive: 5.59% | – |
| COc1ccc(COC(=O)C2=C(C)NC(=O)NC2c2ccccc2)cc1 (configuration not stated) | inactive: -26.7% | – |
| Cc1cccc(CN2CCN(CC(=O)NCCCN3CCCC3=O)C2=O)c1 | – | inconclusive: 0.0928 µM [inhibitor, full curve, poor fit] |
| CCS(=O)(=O)c1c([N+](=O)[O-])ncn1C | – | inconclusive: 11.7 µM [inhibitor, single point] |
| Cc1cc2ncn(CC(C)C)c2cc1C | inactive: 27.9% | – |
| COc1ccc(CNC(=O)c2ccc(Br)s2)cc1OC | inactive: 5.99% | – |
| COC(=O)c1sccc1NC(=O)c1ccc(C(C)C)cc1 | – | active: 10.4 µM |
| CCC(Sc1ncccn1)C(=O)Nc1cc(C)on1 (configuration not stated) | – | inconclusive: 13.1 µM [inhibitor, partial curve, poor fit] |
| COCc1cc(C)nc(NCCc2ccccc2)c1C#N | inactive: -21.5% | – |
| CCOC(=O)c1c(C)nc2sc(C(N)=O)c(N)c2c1-c1ccccc1 | – | inconclusive: 8.28 µM [inhibitor, single point] |
| Cn1c(N)c(C(=O)COC(=O)Cc2ccc(Cl)cc2)c(=O)n(C)c1=O | inactive: -14.9% | – |
| CCSc1nc2[nH]ncc2c(=O)[nH]1 | – | inconclusive: 0.0033 µM [inhibitor, full curve, poor fit] |

| Compound | activity change, negative = inhibition | Potency |
| --- | --- | --- |
| COc1ccc2cc(C(C)C(=O)N3CCC(C)CC3)ccc2c1 (configuration not stated) | – | inconclusive: 11.7 µM [inhibitor, single point] |
| COc1ccc(Cc2nnc(NC(=O)C3CCN(C(=O)c4ccco4)CC3)s2)cc1 | inactive: 15.9% | – |
| Cc1ccc(-c2nc3cc(N)ccc3o2)cc1Br | – | active: 4.65 µM |
| Cc1ccc(Cn2cc(SCC(N)=O)c3ccccc32)cc1 | – | inconclusive: 18.5 µM [inhibitor, single point] |
| COc1ccc(N2CCN(c3cc(C)c4ccc(C)cc4n3)CC2)cc1 | inactive: -0.408% | – |
| O=C1c2ccccc2NC(c2cccc([N+](=O)[O-])c2)N1CCc1ccccc1 (configuration not stated) | – | inconclusive: 11.7 µM [inhibitor, single point] |
| BrCCOCCOc1ccc2ccccc2c1 | inactive: 1.86% | – |
| COCCn1nnnc1C(c1cc2ccc(C)cc2[nH]c1=O)N(Cc1ccco1)Cc1cccs1 (configuration not stated) | inactive: 74.7% | – |
| Cc1cccc(N(C(=O)c2snc(C(N)=O)c2N)C(C(=O)NC2CCCC2)c2ccc(C)o2)c1 (configuration not stated) | inactive: 27.9% | – |
| Brc1ccc(-c2csc(Nc3nc(-c4ccc(Br)cc4)cs3)n2)cc1 | – | inconclusive: 5.22 µM [inhibitor, partial curve, poor fit] |
| Nc1ccc2nc(-c3cc(Cl)c(N)c(Cl)c3)[nH]c2c1 | – | inconclusive: 2.94 µM [inhibitor, full curve, poor fit] |
| CCCCCCCC/C=C\CCCCCCCC(=O)NCc1ccc(O)c(OC)c1 | – | active: 16.9 µM |
| CCOC(=O)N1CCN(C(=O)c2ccc(CS(=O)(=O)c3ccccc3OC)o2)CC1 | – | inconclusive: 0.0657 µM [inhibitor, full curve, poor fit] |
| Cc1cccc(C2c3[nH]c4ccccc4c3CCN2C(=O)c2ccc(=O)[nH]c2)n1 (configuration not stated) | inactive: -13.1% | – |
| CCCCC[C@H](O)/C=C/[C@@H]1[C@@H](C/C=C\CCCC(=O)O)[C@H]2CO[C@@H]1C2 | – | inconclusive: 11.7 µM [inhibitor, single point] |
| COC(=O)c1cc(=O)n2c(sc3ccccc32)c1C#N | inactive: 24.8% | – |
| CC(C)(C)NC(=O)CN(Cc1ccccc1)S(=O)(=O)c1ccccc1 | – | inconclusive: 18.5 µM [inhibitor, single point] |
| COc1ccc(Cl)cc1NC(=O)CN(C)C(C)C(=O)NCC1CCCCC1 (configuration not stated) | – | inconclusive: 11.7 µM [inhibitor, single point] |
| CCC(=O)Nc1ccccc1C(=O)C(=O)Nc1ccccc1 | – | inconclusive: 0.37 µM [inhibitor, full curve, poor fit] |
| COc1ccc2nc(NC(=O)C3CC(=O)N(c4ccc5c(c4)OCCO5)C3)sc2c1 (configuration not stated) | – | inconclusive: 10.4 µM [inhibitor, single point] |
| O=C(Cc1c[nH]c2ccccc12)N1CCN(S(=O)(=O)c2cccc(Cl)c2Cl)CC1 | – | inconclusive: 10.4 µM [inhibitor, single point] |
| O=C(COC(=O)c1cccc([N+](=O)[O-])c1)NCc1ccc2c(c1)OCO2 | inactive: -21.1% | – |
| COC(=O)C(C)Sc1nc2c(c(=O)[nH]c(=O)n2C)n1CCC(C)C (configuration not stated) | – | inconclusive: 13.1 µM [inhibitor, single point] |

Taken from the listing, three compounds:

| Compound | activity change, negative = inhibition | Potency |
| --- | --- | --- |
| Brc1ccc(-c2csc(Nc3nc(-c4ccc(Br)cc4)cs3)n2)cc1 | – | inconclusive: 5.22 µM [inhibitor, partial curve, poor fit] |
| Nc1ccc2nc(-c3cc(Cl)c(N)c(Cl)c3)[nH]c2c1 | – | inconclusive: 2.94 µM [inhibitor, full curve, poor fit] |
| CCCCCCCC/C=C\CCCCCCCC(=O)NCc1ccc(O)c(OC)c1 | – | active: 16.9 µM |
